The target in experiment [1] is Cynomolgus IL-33-his (cynomolgus). The experiment can be described thus: indirect ELISA, biotinylated cynomolgus IL-33-his captured on a streptavidin plate, HRP goat anti-mouse IgG, absorbance 450 nm. A general note: In an ELISA, binding on a coated surface is turned into a signal by an enzyme label.
The target is the same in experiment [2]. The experiment in a line: indirect ELISA, biotinylated cynomolgus IL-33-his on streptavidin plate.
The target is the same in experiment [3]. The experiment in a line: SPR Biacore 8K as Example 14. For orientation: SPR reads the build-up and loss of mass on a sensor chip optically.

These are yes or no findings as the source states them, for the method shown. Some results given as binding are weak or reduced against the parent protein; the word gives no strength.

We go through three molecules from patent US20230399394A1.

B1: 874F7 (antibody, V domains shown)
VH: QVQLKESGPGLVAPSHSLSITCNVSGFSLSKYGVHWIRQIPGRGLDWLGVLRAGGSTGYNSALMSRLSISKDSSKSQVFLKMNDLRTDDTAVYFCVRDHYYYSSYGGFVYWGQGTLVTVSA
VL: DIQMTQSPASQSASLGESVTITCLASQTIGAWLAWYRQQPGKSPQLLIYAATRLADGVPSRFSGSGSGTEFSFKINNLQAEDFVSYYCQQLDSSPYTFGGGTRLEM
With B1, the binding result in experiment [1] and in experiment [2] was “binds” each time.

B2: 871G1 (antibody, V domains shown)
VH: QVHLKESGPGLVAPSQSLSITCNVSGFSLSKYGVHWIRQTPGRGLDWLGVLRAGGTISYNSALMSRLSISEDISKSQVFLKMNDLQTDDSAIYFCARDHYYYSSFGGFASWGQGTLVTVSA
VL: DIQMTQSPASQSASLGESVTITCLASQTIGAWLAWYRQQPGKSPQLLIYAATRLADGVPSRFSGSGSGTKFSFKINNLQAEDFVIYYCQQLNSTPYTFGGGTRLEM
Regarding B2, the binding entry in experiment [1] and in experiment [2] was “binds” in each case.

B3: 864F3-Hu4 (antibody, human IgG4 S228P, kappa, V domains shown)
VH: QVQLQESGPGLVKPSETLSLTCTVSGFSLSKYGVHWIRQPPGKGLEWIGVLRAGGTISYNSALMSRVTISEDISKSQVSLKLSSVTAADTAVYYCARDHYYYSSFGGFASWGQGTLVTVSS
VL: DIQMTQSPSSLSASVGDRVTITCLASQTIATWLAWYQQKPGKSPKLLIYAATRLADGVPSRFSGSGSGTDFTLTISSLQPEDFATYYCQQLYNTPYTFGQGTKVEIKR
B3: the binding entry in experiment [3] is given as “binds”.
